For this test, the system named is Mycobacterium tuberculosis H37 Rv. Put plainly: minimal inhibitory concentration in vitro against Mycobacterium tuberculosis H37 Rv. Conditions: H37RV. The test is classed as cell-based. As to the method:
For instance, the value of the minimal inhibitory concentration in vitro of the "cyclopentyl derivative" against Mycobacterium tuberculosis H37 Rv is 0.05 μg/ml, while that of rifampicin is 0.5 μg/ml.

Structures are written as SMILES. In brackets after ≈: the same amount, converted by molar mass.

`CO[C@H]1/C=C/O[C@@]2(C)Oc3c(C)c(O)c4c(O)c(c(/C=N/N5CCN(C)CC5)c(O)c4c3C2=O)NC(=O)/C(C)=C\C=C\[C@H](C)[C@H](O)[C@@H](C)[C@@H](O)[C@@H](C)[C@H](OC(C)=O)[C@@H]1C` [rifampicin] came in with an MIC of 0.5 µg/mL (≈ 0.608 µM).

For the origin of these results see patent US4002752A, “Piperazinylimino rifamycins” (Gruppo Lepetit S.p.A., priority 1975, dated 1977).
